# Test results from PubChem BioAssay AID1671192 (National Center for Advancing Translational Sciences (NCATS), 2021).
# Protein sequences, listed by entry. Tags and fused reporters are not part of them. Lines headed by an entry give the natural chain unless they say otherwise; changes in a name come on top.
# UniProt P16050: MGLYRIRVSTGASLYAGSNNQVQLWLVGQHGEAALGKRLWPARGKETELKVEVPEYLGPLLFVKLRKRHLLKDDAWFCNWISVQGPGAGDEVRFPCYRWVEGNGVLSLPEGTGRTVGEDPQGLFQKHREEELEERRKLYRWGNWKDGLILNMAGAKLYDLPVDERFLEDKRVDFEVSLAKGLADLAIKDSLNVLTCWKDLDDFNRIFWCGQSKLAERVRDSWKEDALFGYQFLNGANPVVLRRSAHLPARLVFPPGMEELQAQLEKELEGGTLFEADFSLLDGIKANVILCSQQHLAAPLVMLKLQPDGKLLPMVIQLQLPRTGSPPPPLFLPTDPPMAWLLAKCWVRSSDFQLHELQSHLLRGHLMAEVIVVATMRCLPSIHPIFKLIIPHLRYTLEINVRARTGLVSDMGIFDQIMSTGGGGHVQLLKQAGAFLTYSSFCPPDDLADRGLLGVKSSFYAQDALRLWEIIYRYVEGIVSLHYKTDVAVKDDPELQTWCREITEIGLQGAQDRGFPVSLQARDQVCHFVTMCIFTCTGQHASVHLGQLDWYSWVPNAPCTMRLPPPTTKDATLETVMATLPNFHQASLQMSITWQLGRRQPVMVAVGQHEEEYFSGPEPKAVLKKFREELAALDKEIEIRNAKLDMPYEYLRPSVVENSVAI
# Inconclusive results, whose numbers are uncertain, are shown with a selection of clear calls. Where the call is inconclusive, the potency comes from a doubtful curve fit. Activity calls are given as the source filed them. Calls come from the whole dose curve; as a rule, active = well fitted curve in the direction sought with a large enough effect; inconclusive = small, poorly fitted or top-dose-only effect, or another doubt; inactive = no such curve, though single readings can be large or run the other way.
# Biological target: Polyunsaturated fatty acid lipoxygenase ALOX15 (Homo sapiens) (UniProt P16050)
# Assay: Counterscreen qHTS for inhibitors of human arachidonate 12S-lipoxygenase (ALOX12): ALOX15 Assay; for activity change, negative = inhibition: 0% is about no effect
# Conditions: purified ALOX15 enzyme activity; activity change, negative = inhibition: at 110 µM (top of the series) unless noted
# Procedure, shortened: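 Xylenol orange–ferric complex formation, read as the 573 nm to 405 nm absorbance ratio, tracks product from 50 uM arachidonic acid turned over for 30 min at RT. Enzyme is 40 nM ALOX15, pH 7.5 HEPES buffer, compound-preincubated 15 min.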
SMILES,Potency,"activity change, negative = inhibition"
O=C(c1ccc(C(F)(F)F)cc1)N1CCC2(CC1)C(=NC1CCCCC1)NC(=O)N2c1cc(F)cc(F)c1,inactive,–
COc1ccc(N2CC3CCC(C2)N3Cc2ccc(Cl)cc2)cc1,"inconclusive: 15.6 µM [inhibitor, partial curve]",–
O=C(c1ccccc1)N1CCCC2(CC(c3cccc(C(F)(F)F)c3)=NO2)C1 (centres undefined),"inconclusive: 0.0278 µM [inhibitor, full curve, poor fit]",–
CC(=O)N1CCn2cc(C(=O)N3CCOCC3)nc2C1,inactive,–
COc1cccc(S(=O)(=O)N2CCC3(C2)C(=O)Nc2ccccc23)c1 (centres undefined),"inconclusive: 0.0278 µM [inhibitor, full curve, poor fit]",–
CC(C)c1nc2c(c(-c3ccc(Cl)cc3)n1)CCN(Cc1ccc(F)cc1)CC2,"inconclusive: 111 µM [inhibitor, single point]",–
Cc1ccc(CN2CC3(Cc4ccccc4NC3=O)C2)cc1,inactive,–
O=Cc1ccc(-c2ccc(C(=O)O)cn2)cc1,"inconclusive: 160 µM [inhibitor, single point]",–
CCCC(=O)N1Cc2ccccc2CC2(CCCN(C)C2)C1 (centres undefined),inactive,–
O=C(NC1CCCC1)c1cc(C2CC2)nc2onc(C3CCNCC3)c12,"inconclusive: 12.4 µM [inhibitor, partial curve, poor fit]",–
FC(F)(F)c1ccc(N2C3CCC2CN(CC2CCCC2)C3)cc1,–,inconclusive: -34% [inhibitor] [at 146 µM]
O=C1c2ccccc2CN1C1CCN(Cc2ccc(C(F)(F)F)cc2)CC1,inactive,–
C=CCNC(=O)c1cn2c(n1)CN(C(=O)c1ccccc1)CC2,"inconclusive: 138 µM [inhibitor, single point]",–
O=c1[nH]c(C2CCCN(Cc3ccc(-c4ccsc4)cc3)C2)nc2ccc(F)cc12 (centres undefined),"inconclusive: 0.0248 µM [inhibitor, full curve, poor fit]",–
CCOCCCNc1ncnc2c1CN(C1CCNC1)C(=O)CN2C (centres undefined),"inconclusive: 15.6 µM [inhibitor, partial curve, poor fit]",–
O=C(N1CCCC1)N1CCCC(c2nnc3n2CCNC3)C1 (centres undefined),inactive,–
Cc1ccc(CN2CCCCC23Cc2ccccc2CNC3=O)cc1C (centres undefined),"inconclusive: 124 µM [inhibitor, single point]",–
CCc1nc2c(c(-c3ccc(OC)cc3)n1)CCN([S+](=O)([O-])c1ccc(N(C)C)cc1)CC2,"inconclusive: 44.1 µM [inhibitor, partial curve, poor fit]",–
CN1CC(=O)N(C2CCNC2)Cc2c(NC3CCCC3)ncnc21 (centres undefined),inactive,–

# Single entries from the results shown.
# Cc1ccc(CN2CCCCC23Cc2ccccc2CNC3=O)cc1C (centres undefined) – Potency: inconclusive: 124 µM [inhibitor, single point]
# COc1ccc(N2CC3CCC(C2)N3Cc2ccc(Cl)cc2)cc1 – Potency: inconclusive: 15.6 µM [inhibitor, partial curve]
